Reference: paper PMC12848939
These are yes or no findings as the source states them, for the method shown. Some results given as binding are weak or reduced against the parent protein; the word gives no strength. Sequences can lack the tags named with a protein.

How the values were obtained:
[1] = target: T1, Tan1 (yeast two-hybrid fusion) (S. cerevisiae) (UniProt P53072); experiment: two-hybrid; Gal4 yeast two-hybrid in strain PJ69-4A; bait with Gal4 DNA-binding domain (BDN), prey with Gal4 activation domain (ADC); growth on -His (weak) or -Ade (strong) plates, 3 days at 30°C
T1 sequence: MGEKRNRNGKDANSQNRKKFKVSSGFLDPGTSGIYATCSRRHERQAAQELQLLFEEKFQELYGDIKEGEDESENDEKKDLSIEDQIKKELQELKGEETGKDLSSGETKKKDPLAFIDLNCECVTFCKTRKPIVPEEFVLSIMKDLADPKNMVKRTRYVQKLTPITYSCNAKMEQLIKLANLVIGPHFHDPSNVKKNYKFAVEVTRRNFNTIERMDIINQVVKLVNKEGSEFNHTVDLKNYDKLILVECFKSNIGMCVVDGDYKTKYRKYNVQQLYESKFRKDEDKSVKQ

[2] = target: T2, Kre33 (yeast two-hybrid fusion) (S. cerevisiae) (UniProt P53914); experiment: as above
T2 sequence: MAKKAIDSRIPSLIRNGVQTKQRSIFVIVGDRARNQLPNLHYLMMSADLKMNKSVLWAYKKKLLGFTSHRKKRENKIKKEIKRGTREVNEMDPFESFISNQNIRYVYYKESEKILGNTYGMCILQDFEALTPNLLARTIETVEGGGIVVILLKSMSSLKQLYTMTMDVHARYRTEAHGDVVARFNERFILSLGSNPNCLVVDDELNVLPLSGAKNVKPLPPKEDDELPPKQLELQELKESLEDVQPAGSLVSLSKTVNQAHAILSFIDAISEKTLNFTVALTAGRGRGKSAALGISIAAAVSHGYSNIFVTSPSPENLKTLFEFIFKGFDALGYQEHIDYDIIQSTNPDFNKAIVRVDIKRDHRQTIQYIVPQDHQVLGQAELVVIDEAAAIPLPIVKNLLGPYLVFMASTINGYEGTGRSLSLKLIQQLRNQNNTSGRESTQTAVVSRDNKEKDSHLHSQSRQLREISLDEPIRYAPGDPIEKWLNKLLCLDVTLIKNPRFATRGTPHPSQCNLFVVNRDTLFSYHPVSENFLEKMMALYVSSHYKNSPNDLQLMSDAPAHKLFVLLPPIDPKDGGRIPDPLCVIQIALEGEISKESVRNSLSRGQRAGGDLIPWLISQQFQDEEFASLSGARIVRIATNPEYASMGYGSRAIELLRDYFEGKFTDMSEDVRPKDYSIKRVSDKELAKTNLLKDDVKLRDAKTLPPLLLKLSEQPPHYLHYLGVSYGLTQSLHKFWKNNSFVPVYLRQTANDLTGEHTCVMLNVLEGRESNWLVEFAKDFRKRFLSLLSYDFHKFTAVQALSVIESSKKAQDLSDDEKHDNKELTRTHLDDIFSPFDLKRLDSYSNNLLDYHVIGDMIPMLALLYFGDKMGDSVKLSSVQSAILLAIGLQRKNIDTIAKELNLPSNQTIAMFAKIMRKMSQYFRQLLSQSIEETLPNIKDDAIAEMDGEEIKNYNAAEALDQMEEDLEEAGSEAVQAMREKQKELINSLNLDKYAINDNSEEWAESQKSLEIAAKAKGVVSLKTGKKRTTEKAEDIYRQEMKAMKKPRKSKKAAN

B1: Sni445 (yeast two-hybrid fusion) (protein, UniProt P53952 1-270)
chain: MSEFKIVSRKDLYNEGEGLGEDYDSNSSSKNNSEHVEVLVPPTEFEFVEVERTDSSLDLKESNNSAHEQKEEKQEEFEFPLFSFGVVEASTSPAQEEQGSSTQEKDTPQTEVSLMKISLKEPEEEIINQERPKDYYFASYSADQKLQFQQSSIDYDVIIQESTKILEDDLRIRDKWPYCQGRIIDLYKHNARIELEQQKELKIKKRRPGQKQRAAKKLALERTKERDTKAREIKKQLKKKFHKRGGKKNKKKVPLNPLAKAGSTPKFRTE
Question: What does the source list for B1?
Answer: binding [1]: no binding; binding [2]: binds

B2: Tan1 (yeast two-hybrid fusion) (protein, UniProt P53072 1-289)
chain: MGEKRNRNGKDANSQNRKKFKVSSGFLDPGTSGIYATCSRRHERQAAQELQLLFEEKFQELYGDIKEGEDESENDEKKDLSIEDQIKKELQELKGEETGKDLSSGETKKKDPLAFIDLNCECVTFCKTRKPIVPEEFVLSIMKDLADPKNMVKRTRYVQKLTPITYSCNAKMEQLIKLANLVIGPHFHDPSNVKKNYKFAVEVTRRNFNTIERMDIINQVVKLVNKEGSEFNHTVDLKNYDKLILVECFKSNIGMCVVDGDYKTKYRKYNVQQLYESKFRKDEDKSVKQ
Question: B2 was tested. Which binding [2] did it give?
Answer: binds
